Data as given in PubChem BioAssay AID1259308 (NCATS, 2017)
The whole screen tested about 59,000 reagents; below is an unselected part. About 1,510 of them (2.6%) count as active. 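Calls use total luciferase alone and ignore viability, so some active siRNAs may act by altering cell number.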 Unmarked entries are inactive. Reagents against one gene are numbered here. Not all columns of the deposit are shown. Reagent sequences are not shown.

- Screen: 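Knock-downs that increase output of a recombinant reporter protein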 (primary screen)
- Cell system: human HEK293 embryonic kidney cells stably expressing firefly luciferase (HEK-CMV-Luc2-Hygro)
- Knock-down reagent: single siRNA against human genes, 0.8 pmol siRNA per well
- Duration: 72 h
- Measurement: 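Reporter luminescence and viable-cell signal on separate replicate plates, given as percent of non-targeting control and median/MAD z-scores, plus per-cell luciferase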
- Scale: total luciferase, z-score: higher = more reporter protein produced
- Active means: 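Active when the median/MAD z-score for overall luciferase is greater than 3; a gene was taken forward for validation with new siRNAs if at least two of its three siRNAs passed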
- Meaning of the calls: active = raised luciferase; inactive = no rise

total luciferase, z-score, by gene and reagent
OR52N1 (GeneID 79473): #1 -2.3; #2 0.975; #3 -0.405
CDK11B (GeneID 984): #1 1.04; #2 1.51; #3 -0.403
RNF149 (GeneID 284996): #1 0.155; #2 -0.737; #3 0.468
FRMD4B (GeneID 23150): #1 0.169; #2 -0.905; #3 -0.0779
KLHL2 (GeneID 11275): #1 1.52; #2 0.591; #3 0.0628
FAM177A1 (GeneID 283635): #1 0.498; #2 0.165; #3 0.719
RFC3 (GeneID 5983): #1 0.0771; #2 1.51; #3 1.09
RAD17 (GeneID 5884): #1 3.48 (active); #2 0.312; #3 -1

Hits (from the list above):
total luciferase, z-score, by gene and reagent
RAD17 (GeneID 5884): #1 3.48 (active)
